Source: PMC7062894
Results are given in words; binding and its absence hold for the method and conditions named. Binding seen in cells or lysates may run through a third protein. Some binding calls cover weakened binding; strength is not graded here. Tags and fused reporters may be left off the sequences shown.

Protein sequences, listed by entry. Tags and fused reporters are not part of them.
UniProt Q9NT62: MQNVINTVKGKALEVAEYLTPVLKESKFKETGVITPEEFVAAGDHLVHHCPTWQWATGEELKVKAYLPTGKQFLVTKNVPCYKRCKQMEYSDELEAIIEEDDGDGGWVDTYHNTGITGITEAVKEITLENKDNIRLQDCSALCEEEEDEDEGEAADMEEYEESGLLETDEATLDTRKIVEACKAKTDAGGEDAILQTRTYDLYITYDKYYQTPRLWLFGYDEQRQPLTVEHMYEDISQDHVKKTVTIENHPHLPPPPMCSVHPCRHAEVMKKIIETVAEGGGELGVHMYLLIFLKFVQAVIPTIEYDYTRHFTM

Tests used:
[1] = biological target: T1, Purified human TNFAIP8-His-tagged protein (Sino Biological) (human) (UniProt O95379); experiment: pull-down; HepG2 cell lysates (1 mg) incubated with pure TNFAIP8 protein (2 µg) for 3 h; TNFAIP8 pulled down with TNFAIP8 antibody or control IgG; SDS-PAGE and Western blot; only the target purified
T1 sequence: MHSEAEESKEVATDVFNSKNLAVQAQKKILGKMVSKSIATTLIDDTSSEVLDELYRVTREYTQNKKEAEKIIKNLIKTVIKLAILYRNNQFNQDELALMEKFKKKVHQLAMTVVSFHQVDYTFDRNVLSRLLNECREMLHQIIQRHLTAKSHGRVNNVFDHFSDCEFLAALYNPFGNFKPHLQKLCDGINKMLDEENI

[2] = biological target: T2, TNFAIP8-Myc-DDK-tagged protein (human TNFAIP8, transcript variant 1) expressed in HepG2 cells (human) (UniProt O95379); experiment: co-IP; extracts (1 mg, RIPA buffer) of HepG2 cells transfected with EV or TNFAIP8-Myc plasmid; forward and reverse IP (anti-Myc or ATG7 antibody, 4 °C overnight, protein AG-agarose beads), Western blot
T2 sequence: T1 sequence

binding [1]: binds
binding [2]: binds
Substance: Autophagy-related protein 3 (ATG3), endogenous in HepG2 cells (from UniProt Q9NT62 1-314)
